# Measurements taken from the supplement of paper PMC8728848.
# The other results are listed elsewhere or left out.
# Assays:
# Assay in all cases: glycan array binding signal (z-score within array); higher = stronger binding
# Details in all cases: glycan notation: IUPAC condensed, linker removed
# [1] = target: Neu5Ac(a2-3)GalNAc(b1-4)GlcNAc
# Procedure, shortened: (§1)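 The binding signal is a Z-score computed within each array and averaged over linkers. Arrays of the same protein sequence at different concentrations or buffers were also averaged together. Data originate from 3228 arrays in the Consortium for Functional Glycomics database, kept only where the protein sequence was available.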
# [2] = target: Neu5Ac(a2-3)[GalNAc(b1-4)]Gal(b1-4)Glc
# Procedure, shortened: as §1
# [3] = target: Neu5Ac(a2-3)[GalNAc(b1-4)]Gal(b1-4)GlcNAc
# Procedure, shortened: as §1
# [4] = target: Neu5Ac(a2-3)[GalNAc(b1-4)]Gal(b1-4)GlcNAc(b1-3)GalNAc
# Procedure, shortened: as §1
# [5] = target: Neu5Ac(a2-3)[Neu5Ac(a2-6)]GalNAc
# Procedure, shortened: as §1
# Neu5Ac(a2-6)Gal = target: Neu5Ac(a2-6)Gal
# Procedure, shortened: as §1
# [6] = target: Neu5Ac(a2-6)Gal(b1-3)GlcNAc(b1-3)[Gal(b1-4)GlcNAc(b1-6)]Gal(b1-4)Glc
# Procedure, shortened: as §1
# Neu5Ac(a2-6)Gal(b1-4)Glc = target: Neu5Ac(a2-6)Gal(b1-4)Glc
# Procedure, shortened: as §1
# [7] = target: Neu5Ac(a2-6)Gal(b1-4)GlcNAc
# Procedure, shortened: as §1
# [8] = target: Neu5Ac(a2-6)Gal(b1-4)GlcNAc(b1-2)Man
# Procedure, shortened: as §1
# [9] = target: Neu5Ac(a2-6)Gal(b1-4)GlcNAc(b1-2)Man(a1-3)Man(b1-4)GlcNAc(b1-4)GlcNAc
# Procedure, shortened: as §1
# [10] = target: Neu5Ac(a2-6)Gal(b1-4)GlcNAc(b1-2)Man(a1-3)[Gal(b1-4)GlcNAc(b1-2)Man(a1-6)]Man(b1-4)GlcNAc(b1-4)GlcNAc
# Procedure, shortened: as §1
# [11] = target: Neu5Ac(a2-6)Gal(b1-4)GlcNAc(b1-2)Man(a1-3)[GlcNAc(b1-2)Man(a1-6)]Man(b1-4)GlcNAc(b1-4)GlcNAc
# Procedure, shortened: as §1
# [12] = target: Neu5Ac(a2-6)Gal(b1-4)GlcNAc(b1-2)Man(a1-3)[GlcNAc(b1-4)][Neu5Ac(a2-6)Gal(b1-4)GlcNAc(b1-2)Man(a1-6)]Man(b1-4)GlcNAc(b1-4)GlcNAc
# Procedure, shortened: as §1
# [13] = target: Neu5Ac(a2-6)Gal(b1-4)GlcNAc(b1-2)Man(a1-3)[Man(a1-6)]Man(b1-4)GlcNAc(b1-4)GlcNAc
# Procedure, shortened: as §1
# [14] = target: Neu5Ac(a2-6)Gal(b1-4)GlcNAc(b1-2)Man(a1-3)[Neu5Ac(a2-3)Gal(b1-4)GlcNAc(b1-2)Man(a1-6)]Man(b1-4)GlcNAc(b1-4)GlcNAc
# Procedure, shortened: as §1
# [15] = target: Neu5Ac(a2-6)Gal(b1-4)GlcNAc(b1-2)Man(a1-3)[Neu5Ac(a2-6)Gal(b1-4)GlcNAc(b1-2)Man(a1-6)]Man(b1-4)GlcNAc(b1-4)GlcNAc
# Procedure, shortened: as §1
# [16] = target: Neu5Ac(a2-6)Gal(b1-4)GlcNAc(b1-2)Man(a1-3)[Neu5Ac(a2-6)Gal(b1-4)GlcNAc(b1-2)Man(a1-6)]Man(b1-4)GlcNAc(b1-4)[Fuc(a1-6)]GlcNAc
# Procedure, shortened: as §1
# [17] = target: Neu5Ac(a2-6)Gal(b1-4)GlcNAc(b1-2)Man(a1-6)Man(b1-4)GlcNAc(b1-4)GlcNAc
# Procedure, shortened: as §1
# [18] = target: Neu5Ac(a2-6)Gal(b1-4)GlcNAc(b1-2)Man(a1-6)[Gal(b1-4)GlcNAc(b1-2)Man(a1-3)]Man(b1-4)GlcNAc(b1-4)GlcNAc
# Procedure, shortened: as §1
# [19] = target: Neu5Ac(a2-6)Gal(b1-4)GlcNAc(b1-2)Man(a1-6)[GlcNAc(b1-2)Man(a1-3)]Man(b1-4)GlcNAc(b1-4)GlcNAc
# Procedure, shortened: as §1
# [20] = target: Neu5Ac(a2-6)Gal(b1-4)GlcNAc(b1-2)Man(a1-6)[Man(a1-3)]Man(b1-4)GlcNAc(b1-4)GlcNAc
# Procedure, shortened: as §1
# [21] = target: Neu5Ac(a2-6)Gal(b1-4)GlcNAc(b1-2)[Neu5Ac(a2-6)Gal(b1-4)GlcNAc(b1-4)]Man(a1-3)[GlcNAc(b1-4)][Neu5Ac(a2-6)Gal(b1-4)GlcNAc(b1-2)[Neu5Ac(a2-6)Gal(b1-4)GlcNAc(b1-6)]Man(a1-6)]Man(b1-4)GlcNAc(b1-4)GlcNAc
# Procedure, shortened: as §1
# [22] = target: Neu5Ac(a2-6)Gal(b1-4)GlcNAc(b1-2)[Neu5Ac(a2-6)Gal(b1-4)GlcNAc(b1-4)]Man(a1-3)[GlcNAc(b1-4)][Neu5Ac(a2-6)Gal(b1-4)GlcNAc(b1-4)Man(a1-6)]Man(b1-4)GlcNAc(b1-4)GlcNAc
# Procedure, shortened: as §1
# [23] = target: Neu5Ac(a2-6)Gal(b1-4)GlcNAc(b1-2)[Neu5Ac(a2-6)Gal(b1-4)GlcNAc(b1-6)]Man(a1-6)[Neu5Ac(a2-6)Gal(b1-4)GlcNAc(b1-2)Man(a1-3)][GlcNAc(b1-4)]Man(b1-4)GlcNAc(b1-4)GlcNAc
# Procedure, shortened: as §1
# [24] = target: Neu5Ac(a2-6)Gal(b1-4)GlcNAc(b1-3)Gal(b1-3)GlcNAc
# Procedure, shortened: as §1
# [25] = target: Neu5Ac(a2-6)Gal(b1-4)GlcNAc(b1-3)Gal(b1-4)GlcNAc
# Procedure, shortened: as §1
# [26] = target: Neu5Ac(a2-6)Gal(b1-4)GlcNAc(b1-3)Gal(b1-4)GlcNAc(b1-2)Man(a1-3)[Neu5Ac(a2-6)Gal(b1-4)GlcNAc(b1-3)Gal(b1-4)GlcNAc(b1-2)Man(a1-6)]GalNAc
# Procedure, shortened: as §1
# [27] = target: Neu5Ac(a2-6)Gal(b1-4)GlcNAc(b1-3)Gal(b1-4)GlcNAc(b1-3)Gal(b1-4)GlcNAc
# Procedure, shortened: as §1
# [28] = target: Neu5Ac(a2-6)Gal(b1-4)GlcNAc(b1-3)Gal(b1-4)GlcNAc(b1-3)Gal(b1-4)GlcNAc(b1-2)Man(a1-3)[Neu5Ac(a2-6)Gal(b1-4)GlcNAc(b1-3)Gal(b1-4)GlcNAc(b1-3)Gal(b1-4)GlcNAc(b1-2)Man(a1-6)]GalNAc
# Procedure, shortened: as §1
# [29] = target: Neu5Ac(a2-6)Gal(b1-4)GlcNAc(b1-3)Gal(b1-4)GlcNAc(b1-3)GalNAc
# Procedure, shortened: as §1
# [30] = target: Neu5Ac(a2-6)Gal(b1-4)GlcNAc(b1-3)Gal(b1-4)GlcNAc(b1-3)[Neu5Ac(a2-6)Gal(b1-4)GlcNAc(b1-3)Gal(b1-4)GlcNAc(b1-6)]GalNAc
# Procedure, shortened: as §1
# [31] = target: Neu5Ac(a2-6)Gal(b1-4)GlcNAc(b1-3)Gal(b1-4)GlcNAc(b1-6)[Gal(b1-3)]GalNAc
# Procedure, shortened: as §1
# [32] = target: Neu5Ac(a2-6)Gal(b1-4)GlcNAc(b1-3)Gal(b1-4)[Fuc(a1-3)]GlcNAc(b1-3)Gal(b1-4)[Fuc(a1-3)]GlcNAc
# Procedure, shortened: as §1
# [33] = target: Neu5Ac(a2-6)Gal(b1-4)GlcNAc(b1-3)GalNAc
# Procedure, shortened: as §1
# [34] = target: Neu5Ac(a2-6)Gal(b1-4)GlcNAc(b1-3)[Neu5Ac(a2-6)Gal(b1-4)GlcNAc(b1-6)]GalNAc
# Procedure, shortened: as §1
# [35] = target: Neu5Ac(a2-6)Gal(b1-4)GlcNAc(b1-6)GalNAc
# Procedure, shortened: as §1
# [36] = target: Neu5Ac(a2-6)Gal(b1-4)GlcNAc(b1-6)[Gal(b1-3)GlcNAc(b1-3)]Gal(b1-4)Glc
# Procedure, shortened: as §1
binder,measurement,setting,value
Aap arpt (Staphylococcus epidermidis) (protein) NNEAPQMSSTLQAEEGSNAEAPQSEPTKAEEGGNAEAAQSEPTKAEEGGNAEAPQSEPTKAEEGGNAEAAQSEPTKTEEGSNVKAAQSEPTKAEEGSNAEAPQSEPTKTEEGSNAKAAQSEPTKAEEGGNAEAAQSEPTKTEEGSNAEAPQSEPTKAEEGGYAEAPQSEPTKTEEGGNAEAPNVPTIKA,glycan array binding signal (z-score),[1],0.469
same,glycan array binding signal (z-score),[2],1.82
same,glycan array binding signal (z-score),[3],-0.204
same,glycan array binding signal (z-score),[4],-0.324
same,glycan array binding signal (z-score),[5],0.657
same,glycan array binding signal (z-score),Neu5Ac(a2-6)Gal,-1.56
same,glycan array binding signal (z-score),[6],-1.04
same,glycan array binding signal (z-score),Neu5Ac(a2-6)Gal(b1-4)Glc,-1.1
same,glycan array binding signal (z-score),[7],-0.334
same,glycan array binding signal (z-score),[8],1.84
same,glycan array binding signal (z-score),[9],1.59
same,glycan array binding signal (z-score),[10],-0.638
same,glycan array binding signal (z-score),[11],-0.011
same,glycan array binding signal (z-score),[12],0.284
same,glycan array binding signal (z-score),[13],0.68
same,glycan array binding signal (z-score),[14],0.503
same,glycan array binding signal (z-score),[15],-0.148
same,glycan array binding signal (z-score),[16],1.93
same,glycan array binding signal (z-score),[17],0.226
same,glycan array binding signal (z-score),[18],0.156
same,glycan array binding signal (z-score),[19],2.64
same,glycan array binding signal (z-score),[20],0.224
same,glycan array binding signal (z-score),[21],-1.13
same,glycan array binding signal (z-score),[22],-0.548
same,glycan array binding signal (z-score),[23],-0.716
same,glycan array binding signal (z-score),[24],0.451
same,glycan array binding signal (z-score),[25],-0.635
same,glycan array binding signal (z-score),[26],-0.269
same,glycan array binding signal (z-score),[27],0.095
same,glycan array binding signal (z-score),[28],-0.663
same,glycan array binding signal (z-score),[29],-0.486
same,glycan array binding signal (z-score),[30],-0.01
same,glycan array binding signal (z-score),[31],0.045
same,glycan array binding signal (z-score),[32],-0.9
same,glycan array binding signal (z-score),[33],-0.444
same,glycan array binding signal (z-score),[34],-1.09
same,glycan array binding signal (z-score),[35],1.21
same,glycan array binding signal (z-score),[36],1.38

# Shown bar-delimited: part of the list above
binder | measurement | setting | value
Aap arpt (Staphylococcus epidermidis) (protein) NNEAPQMSSTLQAEEGSNAEAPQSEPTKAEEGGNAEAAQSEPTKAEEGGNAEAPQSEPTKAEEGGNAEAAQSEPTKTEEGSNVKAAQSEPTKAEEGSNAEAPQSEPTKTEEGSNAKAAQSEPTKAEEGGNAEAAQSEPTKTEEGSNAEAPQSEPTKAEEGGYAEAPQSEPTKTEEGGNAEAPNVPTIKA | glycan array binding signal (z-score) | [12] | 0.284
same | glycan array binding signal (z-score) | [13] | 0.68
same | glycan array binding signal (z-score) | [14] | 0.503
